No constants are given. Whether binding was seen depends on the method and setting. In cells and extracts the contact can be indirect. A yes stands for co-enrichment or nearness to the bait. Other partners may have been found. Tags and fused reporters may be left off the sequences shown.
Target: T1, 3xFlag-tagged MKRN3 (human) (UniProt Q13064)
T1 sequence: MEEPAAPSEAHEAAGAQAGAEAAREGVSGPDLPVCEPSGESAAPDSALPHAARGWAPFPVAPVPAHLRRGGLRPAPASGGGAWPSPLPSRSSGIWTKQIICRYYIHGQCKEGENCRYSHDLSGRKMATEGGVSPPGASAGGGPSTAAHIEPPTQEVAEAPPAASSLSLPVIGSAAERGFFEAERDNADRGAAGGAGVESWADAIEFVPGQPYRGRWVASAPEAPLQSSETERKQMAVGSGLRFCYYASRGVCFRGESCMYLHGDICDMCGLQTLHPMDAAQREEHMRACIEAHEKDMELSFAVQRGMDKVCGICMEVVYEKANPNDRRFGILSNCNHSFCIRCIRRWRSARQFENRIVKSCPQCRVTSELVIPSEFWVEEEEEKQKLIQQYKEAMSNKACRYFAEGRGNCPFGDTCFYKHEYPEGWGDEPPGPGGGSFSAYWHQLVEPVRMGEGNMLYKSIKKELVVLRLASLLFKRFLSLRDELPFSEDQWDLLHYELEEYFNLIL
Assay: affinity purification with mass spectrometry; HEK293T transfected with MKRN3-3xFlag or empty vector, 48 h; lysed in Co-IP buffer (50 mM Tris-HCl, 150 mM NaCl, 5 mM EDTA, 1% NP-40, pH 7.6); anti-Flag affinity gels overnight at 4°C with or without RNaseA (50 μg/ml); label-free quantitation, three samples each group

The chains behind the UniProt entries cited, without tags or fusion partners.
UniProt P11940: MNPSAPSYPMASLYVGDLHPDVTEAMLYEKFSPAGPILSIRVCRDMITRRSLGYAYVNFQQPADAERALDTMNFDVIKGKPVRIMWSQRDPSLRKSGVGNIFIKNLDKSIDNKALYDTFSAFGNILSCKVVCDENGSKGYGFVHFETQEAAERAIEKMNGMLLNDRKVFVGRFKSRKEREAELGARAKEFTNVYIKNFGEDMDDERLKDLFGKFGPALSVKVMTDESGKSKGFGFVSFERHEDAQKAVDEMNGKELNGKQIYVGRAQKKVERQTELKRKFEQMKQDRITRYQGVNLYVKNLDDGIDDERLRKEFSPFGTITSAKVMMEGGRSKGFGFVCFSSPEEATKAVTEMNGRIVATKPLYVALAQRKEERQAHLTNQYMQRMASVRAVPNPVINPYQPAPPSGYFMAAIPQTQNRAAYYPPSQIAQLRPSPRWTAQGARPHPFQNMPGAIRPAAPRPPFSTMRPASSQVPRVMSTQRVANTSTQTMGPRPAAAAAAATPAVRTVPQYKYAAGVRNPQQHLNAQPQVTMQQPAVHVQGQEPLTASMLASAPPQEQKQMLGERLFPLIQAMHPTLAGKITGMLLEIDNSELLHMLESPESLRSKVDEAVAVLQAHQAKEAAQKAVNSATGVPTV
UniProt Q9H361: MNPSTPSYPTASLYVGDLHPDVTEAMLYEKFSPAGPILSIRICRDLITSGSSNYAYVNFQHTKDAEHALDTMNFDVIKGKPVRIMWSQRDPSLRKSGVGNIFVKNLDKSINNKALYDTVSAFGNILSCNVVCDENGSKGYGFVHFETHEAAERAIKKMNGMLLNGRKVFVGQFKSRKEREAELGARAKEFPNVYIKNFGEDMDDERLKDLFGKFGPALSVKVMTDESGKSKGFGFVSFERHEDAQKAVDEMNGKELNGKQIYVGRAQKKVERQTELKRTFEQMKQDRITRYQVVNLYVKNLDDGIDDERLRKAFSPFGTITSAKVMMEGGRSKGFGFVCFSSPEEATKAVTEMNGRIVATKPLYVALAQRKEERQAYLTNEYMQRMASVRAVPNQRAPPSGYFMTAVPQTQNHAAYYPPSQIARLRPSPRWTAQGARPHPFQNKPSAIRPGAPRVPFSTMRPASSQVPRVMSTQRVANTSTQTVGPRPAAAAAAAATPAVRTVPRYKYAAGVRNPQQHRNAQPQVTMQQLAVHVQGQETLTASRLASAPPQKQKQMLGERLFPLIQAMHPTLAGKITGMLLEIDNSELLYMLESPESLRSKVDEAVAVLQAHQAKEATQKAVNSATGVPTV

Substance	binding
PABPC1 (endogenous, HEK293T) (from UniProt P11940 1-636)	binds
PABPC3 (endogenous, HEK293T) (from UniProt Q9H361 1-631)	binds
